Patent US9458203B2, “Integrin-blocking polypeptides and uses thereof” (priority 2011, dated 2016)
Entries after “also recorded” stand apart in the source; their conditions may differ. Where two headings read alike, the source gives them in different places. At least one peptide structure holds a part that was inferred or is arguable (an end, a ring closure or a residue). Some compounds share one wording; it may come from a single statement. Ends that are not written are not given here.

Legend:
[1] = system: human prostate cancer DU-145; assay type: in vivo, nude mice; details: for tumor inhibition rate / tumor weight: daily, tail vein injection; for inhibition rate on tumor: tail vein daily
[2] = system: human rectal cancer Colo 320; details: for tumor inhibition rate / tumor weight: daily, tail vein injection; for inhibition rate on tumor: tail vein daily
[3] = system: human bladder cancer HT1376; assay: heterotransplanted human bladder cancer HT1376 in nude mice; assay type: in vivo; details: for tumor inhibition rate / tumor weight: daily, tail vein injection; for inhibition rate on tumor: tail vein daily
Source text: (§1) The total medication period was 14 days.

[4] = system: human gastric cancer MGC-803; assay: heterotransplanted human gastric cancer MGC-803 in nude mice; details: tail vein daily
[5] = system: human pancreatic cancer SW-1990; assay: heterotransplanted human pancreatic cancer SW-1990 in nude mice; assay type: in vivo; details: for tumor inhibition rate / tumor weight: daily, tail vein injection; for inhibition rate on tumor: tail vein daily
Source text: as §1

adjuvant arthritis = assay: adjuvant-induced arthritis (AIA) rat models; assay type: in vivo, SD rats; details: for in vivo immunoprotective / therapeutic effect on AIA rat models: all doses, hypodermic twice a day, 10 days; for swelling of left paws / swelling of right paws / clinical scoring: AIA rats; for clinical scoring: joint score, 16 as the highest point
melanoma B16F10 = assay: transplanted melanoma B16F10 in C57BL/6 black mice; details: hypodermic, 14 days
Experimental: Hypodermically injecting polypeptides and other drugs into the left axillary region of mice from the experimental groups respectively while administering only equal quantity of physiological saline to the mice from the negative control group. The total medication period was 14 days, during which cyclophosphamide was administered once every other day, taxol once every three days, low-dose polypeptide twice a day and all other drugs once a day.

[6] = 0.75 mg/kg/time bid (twice a day)

RGDGGGGFQPVLHLVALNSPLSGGMRGIRGADFQCFQQARAVGLAGTFRA [polypeptide II]
tumor inhibition rate ([1]; 0.75 mg/kg/time): 62.92% | tumor weight ([1]; 0.75 mg/kg/time): 0.53 ± 0.12 g | tumor inhibition rate ([1]; 1.5 mg/kg/time): 67.83% | tumor weight ([1]; 1.5 mg/kg/time): 0.46 ± 0.10 g | tumor inhibition rate ([1]; 3 mg/kg/time): 54.25% | tumor weight ([1]; 3 mg/kg/time): 0.65 ± 0.14 g | inhibition rate on tumor ([1]; high dose): 54.25% | inhibition rate on tumor ([1]; low dose): 62.92% | inhibition rate on tumor ([1]; medium dose): 67.83% | tumor inhibition rate ([2]; 0.75 mg/kg/time): 72.26% | tumor weight ([2]; 0.75 mg/kg/time): 0.35 ± 0.10 g | tumor inhibition rate ([2]; 1.5 mg/kg/time): 75.42% | tumor weight ([2]; 1.5 mg/kg/time): 0.31 ± 0.03 g | tumor inhibition rate ([2]; 3 mg/kg/time): 67.41% | tumor weight ([2]; 3 mg/kg/time): 0.41 ± 0.09 g | inhibition rate on tumor ([2]; high dose): 67.41% | inhibition rate on tumor ([2]; low dose): 72.26% | inhibition rate on tumor ([2]; medium dose): 75.42% | tumor inhibition rate ([3]; 0.75 mg/kg/time): 67.62% | tumor weight ([3]; 0.75 mg/kg/time): 0.39 ± 0.10 g | tumor inhibition rate ([3]; 1.5 mg/kg/time): 71.10% | tumor weight ([3]; 1.5 mg/kg/time): 0.35 ± 0.09 g | tumor inhibition rate ([3]; 3 mg/kg/time): 60.97% | tumor weight ([3]; 3 mg/kg/time): 0.47 ± 0.12 g | inhibition rate on tumor ([3]; high dose): 60.97% | inhibition rate on tumor ([3]; low dose): 67.62% | inhibition rate on tumor ([3]; medium dose): 71.10% | tumor inhibition rate ([4]; 0.75 mg/kg/time): 70.67% | tumor weight ([4]; 0.75 mg/kg/time): 0.23 ± 0.13 g | tumor inhibition rate ([4]; 1.5 mg/kg/time): 79.72% | tumor weight ([4]; 1.5 mg/kg/time): 0.16 ± 0.10 g | tumor inhibition rate ([4]; 3 mg/kg/time): 38.28% | tumor weight ([4]; 3 mg/kg/time): 0.48 ± 0.13 g | tumor inhibition rate ([5]; 0.75 mg/kg/time): 70.09% | tumor weight ([5]; 0.75 mg/kg/time): 0.39 ± 0.10 g | tumor inhibition rate ([5]; 1.5 mg/kg/time): 72.97% | tumor weight ([5]; 1.5 mg/kg/time): 0.35 ± 0.09 g | tumor inhibition rate ([5]; 3 mg/kg/time): 65.05% | tumor weight ([5]; 3 mg/kg/time): 0.45 ± 0.10 g | inhibition rate on tumor ([5]; high dose): 65.05% | inhibition rate on tumor ([5]; low dose): 70.09% | inhibition rate on tumor ([5]; medium dose): 72.97% | in vivo immunoprotective / therapeutic effect on AIA rat models (adjuvant arthritis): has therapeutic effect; also recorded: have therapeutic effect | in vivo immunoprotective / therapeutic effect on AIA rat models (adjuvant arthritis; listed as Polypeptide II): presented in vivo immunoprotective effect | swelling of left paws (adjuvant arthritis; dose 0.4 mg/kg): 4.42 ± 0.86 mm | swelling of right paws (adjuvant arthritis; dose 0.4 mg/kg): 1.1 ± 0.23 mm | clinical scoring (adjuvant arthritis; dose 0.4 mg/kg): 6.34 ± 1.22 | swelling of left paws (adjuvant arthritis; dose 0.8 mg/kg): 3.88 ± 0.75 mm | swelling of right paws (adjuvant arthritis; dose 0.8 mg/kg): 0.82 ± 0.24 mm | clinical scoring (adjuvant arthritis; dose 0.8 mg/kg): 5.57 ± 1.25 | swelling of left paws (adjuvant arthritis; dose 1.6 mg/kg): 4.69 ± 0.94 mm | swelling of right paws (adjuvant arthritis; dose 1.6 mg/kg): 1.39 ± 0.36 mm | clinical scoring (adjuvant arthritis; dose 1.6 mg/kg): 7.21 ± 1.44 | joint scoring in contrast with model control group (adjuvant arthritis; high-, medium- and low-dose groups, p<0.05): significantly lower | diameter (swelling degree) of the right hind paw in contrast with model control group (adjuvant arthritis; low-, medium- and high-dose groups, p<0.05): significant difference | diameter of the left hind paw in contrast with model control group (adjuvant arthritis; low-dose and high-dose groups, p<0.05): significant difference | diameter of the left hind paw in contrast with model control group (adjuvant arthritis; medium-dose group, p<0.01): extremely significant difference | tumor inhibition rate (melanoma B16F10; 0.75 mg/kg/time (not bid)): 59.06% | tumor weight (melanoma B16F10; 0.75 mg/kg/time (not bid)): 1.63 ± 0.53 g | tumor inhibition rate (melanoma B16F10; [6]): 55.22% | tumor weight (melanoma B16F10; [6]): 1.79 ± 1.03 g | tumor inhibition rate (melanoma B16F10; 1.5 mg/kg/time once a day): 34.17% | tumor weight (melanoma B16F10; 1.5 mg/kg/time once a day): 2.63 ± 0.69 g | tumor inhibition rate (melanoma B16F10; 3 mg/kg/time once a day): 40.80% | tumor weight (melanoma B16F10; 3 mg/kg/time once a day): 2.36 ± 0.38 g
